Measured values taken from article PMC7819943, “Rice protein-binding microarrays: a tool to detect cis-acting elements near promoter regions in rice”.
The other results are listed elsewhere or left out.

Biological target: T1, OsSMF1 (Oryza sativa, UniProt Q6ZLB0 1-436)
T1 sequence: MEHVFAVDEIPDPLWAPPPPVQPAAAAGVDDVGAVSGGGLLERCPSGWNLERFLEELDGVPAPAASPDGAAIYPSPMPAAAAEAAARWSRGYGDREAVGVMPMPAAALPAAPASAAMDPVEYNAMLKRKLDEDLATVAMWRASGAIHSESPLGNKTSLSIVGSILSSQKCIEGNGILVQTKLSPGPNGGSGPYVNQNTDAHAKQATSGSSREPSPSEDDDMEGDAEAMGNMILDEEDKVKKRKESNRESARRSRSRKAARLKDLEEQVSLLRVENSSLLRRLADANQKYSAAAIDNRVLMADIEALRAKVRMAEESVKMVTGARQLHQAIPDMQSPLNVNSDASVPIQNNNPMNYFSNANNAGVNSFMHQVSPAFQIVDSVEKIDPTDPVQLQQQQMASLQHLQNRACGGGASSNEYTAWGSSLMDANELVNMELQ
Experiment: protein-binding microarray (RPBM); PBS, 2% BSA, 51.3 ng/ul salmon testes DNA, 50 uM zinc acetate, 200 nM TF, 25 C, 1 h; high values mean tight binding
Settings: protein: recombinant; tags: N-terminal polyhistidine and DsRed monomer fusion (pET32a); chain copies: 2; label: CyDye5-dUTP incorporated in the synthesized complementary strand; 3' TTTTT single-stranded linker to array surface; dsDNA, one strand shown
How it was run: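 In PBS with 2% BSA, salmon testes DNA and 50 µM zinc acetate, 200 nM protein was incubated on a custom Agilent array at 25 °C for 1 h and then washed off. The array had been made double-stranded by primer extension with Cy5-dUTP and blocked with 2% BSA. The proteins were transcription factors fused N-terminally to polyhistidine and DsRed, expressed in E. coli BL21-CodonPlus and purified on Ni–NTA. The binding signal is per-feature fluorescence intensity (arbitrary units) from an Axon 4000B scanner.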

Sequence	binding signal
CGATCCTTATCCTATCACCAGCCGCCCACCTATAAATGGCCGGAGTCACCTAGTGCAG	22900 fluorescence intensity (a.u.)
GAGGGAGAGGTGGCCGCGTCACCCTCGGGCCCGACTCCCCCGGAGTCACCTAGTGCAG	11200 fluorescence intensity (a.u.)
GTTCACGGCCACCACTATCGTGTTGTCTTTGTGTCGTTGTCGGAGTCACCTAGTGCAG	3310 fluorescence intensity (a.u.)
CATAGCCCTCTGTCGCGGGCGCCGCTGTCCACCGTCCTCCCGGAGTCACCTAGTGCAG	43900 fluorescence intensity (a.u.)
GACGGCGGACACCTCAGCCGATGCAGAGATCTCCGCACGACGGAGTCACCTAGTGCAG	3240 fluorescence intensity (a.u.)
TTACTTAATTACTATAGATAATTAGTTGATTAGTGTTACTCGGAGTCACCTAGTGCAG	3500 fluorescence intensity (a.u.)
GCGAAAGGCTCTAAAATCGATGATCATCCTGGTCACGTGGCGGAGTCACCTAGTGCAG	3740 fluorescence intensity (a.u.)
ATAGTGGTCCAAAGCTGACGTGGCCAAGACTGGCCCACATCGGAGTCACCTAGTGCAG	14700 fluorescence intensity (a.u.)
TCTCAGGACCGAGTCAGCAATGACGCGGTTTGTACTACTACGGAGTCACCTAGTGCAG	9520 fluorescence intensity (a.u.)
TGTCCCCGAACCGGATCTGCCCGATGCTCGCCGTCAGCATCGGAGTCACCTAGTGCAG	4300 fluorescence intensity (a.u.)
TGGCTGTTCTTATTTTGGGATGGAGGTAGTATTGTTTTCGCGGAGTCACCTAGTGCAG	4070 fluorescence intensity (a.u.)
TTATAAGGTGGGACGAAAATAACCCCGTGTTTCCGTGACGCGGAGTCACCTAGTGCAG	3800 fluorescence intensity (a.u.)
CCTTACGCGAGAGAGAGAGAGAGAGAGAGAGAGAGCGAGCCGGAGTCACCTAGTGCAG	27800 fluorescence intensity (a.u.)
GCCTTCGCCGCCTCTGCATCCTTCTCCGGCGGCGCCAGGTCGGAGTCACCTAGTGCAG	3160 fluorescence intensity (a.u.)
TTTTCCAATTAAGAAAATATGCTGACATAGATATATTGTACGGAGTCACCTAGTGCAG	4190 fluorescence intensity (a.u.)
AGTGGCCACCCCTTGCAACGTCAGATCATTTCAACTATTACGGAGTCACCTAGTGCAG	4940 fluorescence intensity (a.u.)
CCGTCCACGCGCGATTCCTCCCCTCCACCCGCGCCATCTCCGGAGTCACCTAGTGCAG	27700 fluorescence intensity (a.u.)
AGATTAGTTTTCCCATATATTTCTTGTCAGTCGTCGTCATCGGAGTCACCTAGTGCAG	3760 fluorescence intensity (a.u.)
CCAGTACCACCACGTACGTCCACCACCACCTCCACCTCCGCGGAGTCACCTAGTGCAG	4950 fluorescence intensity (a.u.)
TGACCTACTTGCACTTATAATTTATAGTATTATGATGTGTCGGAGTCACCTAGTGCAG	3290 fluorescence intensity (a.u.)
GCAGATTCGCCGCTGCCACCGCATCCCGCCCACCCACCGCCGGAGTCACCTAGTGCAG	4230 fluorescence intensity (a.u.)

Sequence	binding signal
CTGGTGCTGCATCTACCTGATCCATCGTACCATTAATTAGCGGAGTCACCTAGTGCAG	22900 fluorescence intensity (a.u.)
GTCCGGCGACGGTTGCCGCGCCGGCTGCTCGCTGGCCATCCGGAGTCACCTAGTGCAG	3270 fluorescence intensity (a.u.)
GATGAAAGGTGAGGCCCACTGTCAGTGGCTCAGGCCTGTACGGAGTCACCTAGTGCAG	15800 fluorescence intensity (a.u.)
AATAGGTGCAACTATTGGTTGCTTAAGTGTGATCCTATCACGGAGTCACCTAGTGCAG	3400 fluorescence intensity (a.u.)
ATAAGAATATGGTATACATGTGTATTCATATGTTCAAACACGGAGTCACCTAGTGCAG	3520 fluorescence intensity (a.u.)
CCATGGATGCCGACGTCGTAATGGCTTCTCTCTCTGCTGTCGGAGTCACCTAGTGCAG	3830 fluorescence intensity (a.u.)
TCTCACTGTTACCGTACGCGACCACACTTTATATCGGACCCGGAGTCACCTAGTGCAG	4010 fluorescence intensity (a.u.)
GTAGAGGAACATTTTGTCCCTAGTCAGTTGAGTGTCAGGACGGAGTCACCTAGTGCAG	3230 fluorescence intensity (a.u.)
AAATTCCCACACACACACACACACACACACACACACACACCGGAGTCACCTAGTGCAG	3330 fluorescence intensity (a.u.)
GAAATTTTCTGCACGTACGTGTACGTGTATGCTCGTGCTGCGGAGTCACCTAGTGCAG	5440 fluorescence intensity (a.u.)
ACGGCTGCGGCTTCCTTGTGCGTCGTGACCCGCGCCCTGACGGAGTCACCTAGTGCAG	3980 fluorescence intensity (a.u.)
CGCGCGCGCGCACGTACGTACGCACGCGACACCGCCCACCCGGAGTCACCTAGTGCAG	3200 fluorescence intensity (a.u.)
GTCGTAGGTTAGGGCATAGCCGCGTAGGCGGCCAGCGGGGCGGAGTCACCTAGTGCAG	4920 fluorescence intensity (a.u.)
GGCCTGATGATGGAATGTGTCGGCTTAGGGATTGTAGTGTCGGAGTCACCTAGTGCAG	3950 fluorescence intensity (a.u.)
CTCCACACAGACACACATCCCACCCCACCCACATACACACCGGAGTCACCTAGTGCAG	3610 fluorescence intensity (a.u.)
CGCCAACACGACGCTGTGCCGTGGCGCGCCGACAATCATCCGGAGTCACCTAGTGCAG	3600 fluorescence intensity (a.u.)
TGATAACATGTTGTAAACTTCTCTAGGCATTACCAATATTCGGAGTCACCTAGTGCAG	3440 fluorescence intensity (a.u.)
AATTAAGGTAGGAGGAGTAGTTGCTTGCCTCCGTCCTGATCGGAGTCACCTAGTGCAG	26800 fluorescence intensity (a.u.)
CTTCCGTGCCCTAGCTTCCCACCCTTCCAGCGAGAGAACACGGAGTCACCTAGTGCAG	3250 fluorescence intensity (a.u.)
GATCTACACGTTAGTCTACGCACCTATGCGTGCCTAAGCGCGGAGTCACCTAGTGCAG	32400 fluorescence intensity (a.u.)
GACAACTTGATAGAGTGTGACACGCTCTTGTGAATAATCTCGGAGTCACCTAGTGCAG	14100 fluorescence intensity (a.u.)

Part of the list above, in markdown:

| Sequence | binding signal |
| --- | --- |
| AAATTCCCACACACACACACACACACACACACACACACACCGGAGTCACCTAGTGCAG | 3330 fluorescence intensity (a.u.) |
| GAAATTTTCTGCACGTACGTGTACGTGTATGCTCGTGCTGCGGAGTCACCTAGTGCAG | 5440 fluorescence intensity (a.u.) |
| ACGGCTGCGGCTTCCTTGTGCGTCGTGACCCGCGCCCTGACGGAGTCACCTAGTGCAG | 3980 fluorescence intensity (a.u.) |
| CGCGCGCGCGCACGTACGTACGCACGCGACACCGCCCACCCGGAGTCACCTAGTGCAG | 3200 fluorescence intensity (a.u.) |
| GTCGTAGGTTAGGGCATAGCCGCGTAGGCGGCCAGCGGGGCGGAGTCACCTAGTGCAG | 4920 fluorescence intensity (a.u.) |
| GGCCTGATGATGGAATGTGTCGGCTTAGGGATTGTAGTGTCGGAGTCACCTAGTGCAG | 3950 fluorescence intensity (a.u.) |
| CTCCACACAGACACACATCCCACCCCACCCACATACACACCGGAGTCACCTAGTGCAG | 3610 fluorescence intensity (a.u.) |
| CGCCAACACGACGCTGTGCCGTGGCGCGCCGACAATCATCCGGAGTCACCTAGTGCAG | 3600 fluorescence intensity (a.u.) |
| TGATAACATGTTGTAAACTTCTCTAGGCATTACCAATATTCGGAGTCACCTAGTGCAG | 3440 fluorescence intensity (a.u.) |
| AATTAAGGTAGGAGGAGTAGTTGCTTGCCTCCGTCCTGATCGGAGTCACCTAGTGCAG | 26800 fluorescence intensity (a.u.) |
